For three molecules, binding results are on record in PMC8479171.

No constants are given. Whether binding was seen depends on the method and setting. Binding seen in cells or lysates may run through a third protein. Binding can be weak; no strength is given. For part of these data: Sequences can lack the tags named with a protein.

The target in experiment [1] is T1, Gimap5 (GTPase of immunity-associated protein 5), over-expressed from pcDNA3.1-Gimap5/3×Flag-EGFP (human) (UniProt Q96F15).
T1 sequence: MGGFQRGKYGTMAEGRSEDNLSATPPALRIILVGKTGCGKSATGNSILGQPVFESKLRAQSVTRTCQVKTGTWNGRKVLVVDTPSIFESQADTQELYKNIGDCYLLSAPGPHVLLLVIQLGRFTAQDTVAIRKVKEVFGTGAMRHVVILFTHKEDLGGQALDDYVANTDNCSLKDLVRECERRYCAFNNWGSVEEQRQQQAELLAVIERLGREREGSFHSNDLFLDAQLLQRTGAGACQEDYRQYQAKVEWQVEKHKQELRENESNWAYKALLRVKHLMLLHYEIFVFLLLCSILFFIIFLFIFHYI
In words: co-IP; reciprocal: IP with Gimap5 antibody blotted for M6PR, IP with M6PR antibody blotted for Gimap5; cells by the methods Beas-2b and PC9 with Gimap5 overexpression.

For experiment [2], the target named is M6PR (mannose 6-phosphate receptor) (human (endogenous in Beas-2b and PC9)). In words: co-IP; total protein of Beas-2b; IP of M6PR, western blot with anti-Gimap5 antibody.
For experiment [3] the target is unchanged. The experiment is described as follows: co-IP; reciprocal: IP with Gimap5 antibody blotted for M6PR, IP with M6PR antibody blotted for Gimap5; cells by the methods Beas-2b and PC9 with Gimap5 overexpression.

For the molecule “M6PR (mannose 6-phosphate receptor) (human (endogenous in Beas-2b and PC9))”, the binding result in experiment [1] is on record as “binds”.

B1: Gimap5, endogenous in Beas-2b cells (protein, UniProt Q96F15 1-307)
chain: T1 sequence
As to B1, in experiment [2], the binding result is “binds”.

B2: Gimap5 (GTPase of immunity-associated protein 5), over-expressed from pcDNA3.1-Gimap5/3×Flag-EGFP (protein, UniProt Q96F15 1-307)
chain: T1 sequence
Take B2: in experiment [3], the binding result is “binds”.
